The text below walks through data of article PMC4980427, “Ctf4 Links DNA Replication with Sister Chromatid Cohesion Establishment by Recruiting the Chl1 Helicase to the Replisome” (Molecular Cell, 2016).

Assay [1] has as its target T1, Ctf4 (S. cerevisiae (endogenous in budding yeast cells)), Q01454.
T1 chain: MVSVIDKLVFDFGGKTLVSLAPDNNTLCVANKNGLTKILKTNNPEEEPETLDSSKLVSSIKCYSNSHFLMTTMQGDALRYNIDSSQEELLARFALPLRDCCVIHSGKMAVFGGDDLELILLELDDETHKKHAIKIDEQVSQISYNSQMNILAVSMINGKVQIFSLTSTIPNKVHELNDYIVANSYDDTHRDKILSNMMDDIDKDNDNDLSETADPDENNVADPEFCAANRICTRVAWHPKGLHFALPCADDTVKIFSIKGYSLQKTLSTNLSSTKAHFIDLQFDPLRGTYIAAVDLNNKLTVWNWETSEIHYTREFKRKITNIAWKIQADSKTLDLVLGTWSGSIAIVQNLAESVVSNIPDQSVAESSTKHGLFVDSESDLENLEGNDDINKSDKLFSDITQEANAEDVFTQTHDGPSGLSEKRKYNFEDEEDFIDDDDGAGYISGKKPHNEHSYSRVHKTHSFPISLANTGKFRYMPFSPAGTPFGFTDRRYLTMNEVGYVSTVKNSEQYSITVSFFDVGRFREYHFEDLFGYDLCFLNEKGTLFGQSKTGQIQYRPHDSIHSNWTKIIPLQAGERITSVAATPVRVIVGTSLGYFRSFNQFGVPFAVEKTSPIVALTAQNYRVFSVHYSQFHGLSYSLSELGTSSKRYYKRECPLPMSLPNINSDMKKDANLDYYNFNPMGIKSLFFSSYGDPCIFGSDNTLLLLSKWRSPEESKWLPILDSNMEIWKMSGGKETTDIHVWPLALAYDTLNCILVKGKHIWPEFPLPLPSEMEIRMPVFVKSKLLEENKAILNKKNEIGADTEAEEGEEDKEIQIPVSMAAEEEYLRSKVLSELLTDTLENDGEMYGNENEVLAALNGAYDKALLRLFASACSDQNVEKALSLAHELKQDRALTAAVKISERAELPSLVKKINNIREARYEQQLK
The assay is described as follows: co-IP; extracts of a culture passing synchronously through the cell cycle after α factor block and release; time points in S phase; immunoblotting. The following applies: remark: other sources report otherwise. For orientation: In western blotting, separated proteins are transferred to a membrane and probed.

In assay [2] the target is T2, Chl1-HA (S. cerevisiae), P22516.
T2 chain: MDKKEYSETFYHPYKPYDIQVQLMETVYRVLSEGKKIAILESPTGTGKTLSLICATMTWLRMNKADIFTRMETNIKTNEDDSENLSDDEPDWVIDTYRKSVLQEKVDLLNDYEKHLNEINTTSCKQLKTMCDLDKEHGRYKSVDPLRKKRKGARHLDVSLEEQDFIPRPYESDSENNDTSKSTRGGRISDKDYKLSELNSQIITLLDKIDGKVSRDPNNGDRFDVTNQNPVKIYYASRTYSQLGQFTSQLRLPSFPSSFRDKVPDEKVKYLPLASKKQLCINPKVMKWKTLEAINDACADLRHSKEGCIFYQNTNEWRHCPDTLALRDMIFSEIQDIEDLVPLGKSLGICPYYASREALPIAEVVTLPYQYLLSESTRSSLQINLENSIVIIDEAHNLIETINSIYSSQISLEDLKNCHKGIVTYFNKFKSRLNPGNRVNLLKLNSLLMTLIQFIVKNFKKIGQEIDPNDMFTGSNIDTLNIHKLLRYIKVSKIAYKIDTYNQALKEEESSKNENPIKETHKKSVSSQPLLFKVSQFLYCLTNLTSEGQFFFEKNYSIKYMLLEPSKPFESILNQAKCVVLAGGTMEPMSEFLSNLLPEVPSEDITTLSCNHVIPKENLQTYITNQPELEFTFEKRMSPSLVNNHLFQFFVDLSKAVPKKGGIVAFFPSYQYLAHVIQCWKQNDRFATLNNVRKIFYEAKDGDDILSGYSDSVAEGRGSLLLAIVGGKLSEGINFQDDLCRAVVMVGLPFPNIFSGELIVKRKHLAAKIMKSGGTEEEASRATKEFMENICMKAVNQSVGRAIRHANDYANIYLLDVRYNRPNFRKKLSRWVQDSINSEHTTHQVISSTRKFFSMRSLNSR
Kind of assay: co-IP; extracts of cells synchronized and arrested in early S phase by HU; Chl1-HA immunoprecipitated, Ctf4 detected by immunoblotting. The following applies: remark: other sources report otherwise.

Assay [3] addresses T3, Chl1^K48R (S. cerevisiae) (UniProt P22516).
T3 sequence: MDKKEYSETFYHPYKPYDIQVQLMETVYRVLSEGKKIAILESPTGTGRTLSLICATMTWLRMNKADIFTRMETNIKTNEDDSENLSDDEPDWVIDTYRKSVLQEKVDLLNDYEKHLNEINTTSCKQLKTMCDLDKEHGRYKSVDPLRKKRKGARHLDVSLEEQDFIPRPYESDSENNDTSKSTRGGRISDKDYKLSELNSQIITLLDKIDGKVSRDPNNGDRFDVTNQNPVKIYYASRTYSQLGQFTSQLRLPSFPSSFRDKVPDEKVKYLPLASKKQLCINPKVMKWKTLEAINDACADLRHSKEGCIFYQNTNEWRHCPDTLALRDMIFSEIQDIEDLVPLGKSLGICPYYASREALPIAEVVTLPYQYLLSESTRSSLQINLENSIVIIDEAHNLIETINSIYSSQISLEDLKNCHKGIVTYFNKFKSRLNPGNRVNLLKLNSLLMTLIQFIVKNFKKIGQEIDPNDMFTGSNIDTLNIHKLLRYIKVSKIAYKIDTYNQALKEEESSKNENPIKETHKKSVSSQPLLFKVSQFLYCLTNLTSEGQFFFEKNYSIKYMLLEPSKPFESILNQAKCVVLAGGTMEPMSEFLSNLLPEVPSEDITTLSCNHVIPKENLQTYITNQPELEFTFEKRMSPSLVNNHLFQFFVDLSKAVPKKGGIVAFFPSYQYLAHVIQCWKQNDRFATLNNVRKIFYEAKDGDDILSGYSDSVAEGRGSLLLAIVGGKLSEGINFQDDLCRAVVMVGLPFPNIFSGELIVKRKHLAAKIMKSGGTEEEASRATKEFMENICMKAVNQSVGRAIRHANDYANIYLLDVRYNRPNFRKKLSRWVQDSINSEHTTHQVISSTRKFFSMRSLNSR
The assay is described as above.

These are yes or no findings as the source states them, for the method shown. In cells and extracts the contact can be indirect. Some entries that bind do so weakly or less than the wild type. For part of these data: Sequences can lack the tags named with a protein.

B1: Pk epitope-tagged Chl1, P22516 1-861 (enzyme)
chain: MDKKEYSETFYHPYKPYDIQVQLMETVYRVLSEGKKIAILESPTGTGKTLSLICATMTWLRMNKADIFTRMETNIKTNEDDSENLSDDEPDWVIDTYRKSVLQEKVDLLNDYEKHLNEINTTSCKQLKTMCDLDKEHGRYKSVDPLRKKRKGARHLDVSLEEQDFIPRPYESDSENNDTSKSTRGGRISDKDYKLSELNSQIITLLDKIDGKVSRDPNNGDRFDVTNQNPVKIYYASRTYSQLGQFTSQLRLPSFPSSFRDKVPDEKVKYLPLASKKQLCINPKVMKWKTLEAINDACADLRHSKEGCIFYQNTNEWRHCPDTLALRDMIFSEIQDIEDLVPLGKSLGICPYYASREALPIAEVVTLPYQYLLSESTRSSLQINLENSIVIIDEAHNLIETINSIYSSQISLEDLKNCHKGIVTYFNKFKSRLNPGNRVNLLKLNSLLMTLIQFIVKNFKKIGQEIDPNDMFTGSNIDTLNIHKLLRYIKVSKIAYKIDTYNQALKEEESSKNENPIKETHKKSVSSQPLLFKVSQFLYCLTNLTSEGQFFFEKNYSIKYMLLEPSKPFESILNQAKCVVLAGGTMEPMSEFLSNLLPEVPSEDITTLSCNHVIPKENLQTYITNQPELEFTFEKRMSPSLVNNHLFQFFVDLSKAVPKKGGIVAFFPSYQYLAHVIQCWKQNDRFATLNNVRKIFYEAKDGDDILSGYSDSVAEGRGSLLLAIVGGKLSEGINFQDDLCRAVVMVGLPFPNIFSGELIVKRKHLAAKIMKSGGTEEEASRATKEFMENICMKAVNQSVGRAIRHANDYANIYLLDVRYNRPNFRKKLSRWVQDSINSEHTTHQVISSTRKFFSMRSLNSR
On to B1, for which the binding entry in assay [1] is on record as “binds”.

B2: Ctf4, Q01454 1-927 (protein)
chain: MVSVIDKLVFDFGGKTLVSLAPDNNTLCVANKNGLTKILKTNNPEEEPETLDSSKLVSSIKCYSNSHFLMTTMQGDALRYNIDSSQEELLARFALPLRDCCVIHSGKMAVFGGDDLELILLELDDETHKKHAIKIDEQVSQISYNSQMNILAVSMINGKVQIFSLTSTIPNKVHELNDYIVANSYDDTHRDKILSNMMDDIDKDNDNDLSETADPDENNVADPEFCAANRICTRVAWHPKGLHFALPCADDTVKIFSIKGYSLQKTLSTNLSSTKAHFIDLQFDPLRGTYIAAVDLNNKLTVWNWETSEIHYTREFKRKITNIAWKIQADSKTLDLVLGTWSGSIAIVQNLAESVVSNIPDQSVAESSTKHGLFVDSESDLENLEGNDDINKSDKLFSDITQEANAEDVFTQTHDGPSGLSEKRKYNFEDEEDFIDDDDGAGYISGKKPHNEHSYSRVHKTHSFPISLANTGKFRYMPFSPAGTPFGFTDRRYLTMNEVGYVSTVKNSEQYSITVSFFDVGRFREYHFEDLFGYDLCFLNEKGTLFGQSKTGQIQYRPHDSIHSNWTKIIPLQAGERITSVAATPVRVIVGTSLGYFRSFNQFGVPFAVEKTSPIVALTAQNYRVFSVHYSQFHGLSYSLSELGTSSKRYYKRECPLPMSLPNINSDMKKDANLDYYNFNPMGIKSLFFSSYGDPCIFGSDNTLLLLSKWRSPEESKWLPILDSNMEIWKMSGGKETTDIHVWPLALAYDTLNCILVKGKHIWPEFPLPLPSEMEIRMPVFVKSKLLEENKAILNKKNEIGADTEAEEGEEDKEIQIPVSMAAEEEYLRSKVLSELLTDTLENDGEMYGNENEVLAALNGAYDKALLRLFASACSDQNVEKALSLAHELKQDRALTAAVKISERAELPSLVKKINNIREARYEQQLK
Take B2: the binding entry in assay [2] is reported as “binds”.

B3: Ctf4 (protein, UniProt Q01454 1-927)
chain: MVSVIDKLVFDFGGKTLVSLAPDNNTLCVANKNGLTKILKTNNPEEEPETLDSSKLVSSIKCYSNSHFLMTTMQGDALRYNIDSSQEELLARFALPLRDCCVIHSGKMAVFGGDDLELILLELDDETHKKHAIKIDEQVSQISYNSQMNILAVSMINGKVQIFSLTSTIPNKVHELNDYIVANSYDDTHRDKILSNMMDDIDKDNDNDLSETADPDENNVADPEFCAANRICTRVAWHPKGLHFALPCADDTVKIFSIKGYSLQKTLSTNLSSTKAHFIDLQFDPLRGTYIAAVDLNNKLTVWNWETSEIHYTREFKRKITNIAWKIQADSKTLDLVLGTWSGSIAIVQNLAESVVSNIPDQSVAESSTKHGLFVDSESDLENLEGNDDINKSDKLFSDITQEANAEDVFTQTHDGPSGLSEKRKYNFEDEEDFIDDDDGAGYISGKKPHNEHSYSRVHKTHSFPISLANTGKFRYMPFSPAGTPFGFTDRRYLTMNEVGYVSTVKNSEQYSITVSFFDVGRFREYHFEDLFGYDLCFLNEKGTLFGQSKTGQIQYRPHDSIHSNWTKIIPLQAGERITSVAATPVRVIVGTSLGYFRSFNQFGVPFAVEKTSPIVALTAQNYRVFSVHYSQFHGLSYSLSELGTSSKRYYKRECPLPMSLPNINSDMKKDANLDYYNFNPMGIKSLFFSSYGDPCIFGSDNTLLLLSKWRSPEESKWLPILDSNMEIWKMSGGKETTDIHVWPLALAYDTLNCILVKGKHIWPEFPLPLPSEMEIRMPVFVKSKLLEENKAILNKKNEIGADTEAEEGEEDKEIQIPVSMAAEEEYLRSKVLSELLTDTLENDGEMYGNENEVLAALNGAYDKALLRLFASACSDQNVEKALSLAHELKQDRALTAAVKISERAELPSLVKKINNIREARYEQQLK
On to B3, for which the binding result in assay [3] was “binds”.
